These are yes or no findings as the source states them, for the method shown. For some assays here: In cells and extracts the contact can be indirect. Some binding calls cover weakened binding; strength is not graded here.
Columns and labels:
[1] = target: T1, C-reactive protein of human serum (human (endogenous in human serum)) (UniProt P02741); test: co-IP; human serum immunoprecipitated with anti-Ob R or anti-CRP and protein A beads; SDS-PAGE and Western blot probed with anti-CRP or anti-sOb R, ECL
T1 sequence: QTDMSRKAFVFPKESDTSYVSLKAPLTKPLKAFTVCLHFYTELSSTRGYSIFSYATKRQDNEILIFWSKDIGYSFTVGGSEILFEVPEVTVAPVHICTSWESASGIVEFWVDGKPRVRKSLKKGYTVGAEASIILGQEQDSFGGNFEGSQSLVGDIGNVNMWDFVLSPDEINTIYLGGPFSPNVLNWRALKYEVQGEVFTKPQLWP

Amino acid sequences for entries named in this document (tags omitted). Residues count along the entry.
UniProt P02769, residues 25-607: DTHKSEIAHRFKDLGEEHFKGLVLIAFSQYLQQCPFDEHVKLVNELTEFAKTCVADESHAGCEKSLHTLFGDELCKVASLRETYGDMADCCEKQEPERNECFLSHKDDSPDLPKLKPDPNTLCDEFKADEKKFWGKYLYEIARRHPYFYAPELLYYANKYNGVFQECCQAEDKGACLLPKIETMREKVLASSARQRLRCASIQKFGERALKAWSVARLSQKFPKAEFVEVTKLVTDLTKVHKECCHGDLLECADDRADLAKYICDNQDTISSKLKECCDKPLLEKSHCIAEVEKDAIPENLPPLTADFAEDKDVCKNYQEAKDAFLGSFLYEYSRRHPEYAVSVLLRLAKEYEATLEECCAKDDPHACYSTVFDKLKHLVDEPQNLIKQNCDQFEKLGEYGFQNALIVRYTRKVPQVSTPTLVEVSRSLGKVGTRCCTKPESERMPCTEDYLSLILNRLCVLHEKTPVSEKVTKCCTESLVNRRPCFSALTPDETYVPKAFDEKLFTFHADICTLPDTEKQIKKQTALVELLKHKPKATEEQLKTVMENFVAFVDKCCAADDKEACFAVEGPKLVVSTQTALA
UniProt P48357, residues 22-839: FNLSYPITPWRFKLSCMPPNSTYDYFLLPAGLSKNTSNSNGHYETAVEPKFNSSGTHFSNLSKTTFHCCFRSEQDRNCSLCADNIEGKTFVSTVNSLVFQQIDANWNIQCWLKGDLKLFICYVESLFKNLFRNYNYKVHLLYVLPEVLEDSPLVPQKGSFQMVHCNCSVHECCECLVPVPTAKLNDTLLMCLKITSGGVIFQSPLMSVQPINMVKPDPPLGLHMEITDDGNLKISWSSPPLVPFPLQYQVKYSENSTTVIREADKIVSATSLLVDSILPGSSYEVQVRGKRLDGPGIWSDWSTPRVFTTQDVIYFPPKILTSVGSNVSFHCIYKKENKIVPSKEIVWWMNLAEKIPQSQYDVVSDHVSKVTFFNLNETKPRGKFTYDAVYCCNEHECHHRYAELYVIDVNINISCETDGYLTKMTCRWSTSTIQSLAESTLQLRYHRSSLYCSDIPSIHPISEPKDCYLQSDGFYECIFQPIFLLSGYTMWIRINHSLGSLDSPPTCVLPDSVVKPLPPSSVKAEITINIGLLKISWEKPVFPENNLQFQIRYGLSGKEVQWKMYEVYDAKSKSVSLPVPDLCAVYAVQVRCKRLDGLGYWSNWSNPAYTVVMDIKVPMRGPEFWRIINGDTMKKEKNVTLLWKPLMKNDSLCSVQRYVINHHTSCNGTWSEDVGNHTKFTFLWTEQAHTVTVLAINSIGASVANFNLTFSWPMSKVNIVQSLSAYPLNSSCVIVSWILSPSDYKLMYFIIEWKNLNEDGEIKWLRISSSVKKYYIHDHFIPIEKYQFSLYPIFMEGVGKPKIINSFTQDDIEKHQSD

[2] = target: T2, Monomeric CRP prepared from human serum CRP (human) (UniProt P02741); test: ELISA; same solid phase binding assay with heat-treated mCRP coated on the plate (different concentrations, or 0.6 µg/ml); both purified
T2 sequence: T1 sequence

Lysozyme = Lysozyme (UniProt P00698); test: ELISA; solid phase binding assay; CRP forms or control proteins coated on a 96-well plate at 4°C overnight in Tris/HCl 0.05 M pH 7.4 (different concentrations, or 0.6 µg/ml for Figure 5B); blocked with 0.5% gelatin; leptin receptor 100 ng/ml in 50 µl PBS added for 1 h at RT; detected with anti-Ob R antibody and HRP anti-rabbit IgG; both purified
[3] = target: T3, Monomeric CRP prepared from recombinant CRP (UniProt P02741); test: as above
T3 sequence: T1 sequence

[4] = target: Serum albumin (BSA) (bovine (printed as BSA)) (UniProt P02769); test: as above

Row | Substance | binding [1] | binding [2] | binding (Lysozyme) | binding [3] | binding [4]
1 | Soluble leptin receptor of human serum (from UniProt P48357 22-839) | binds | – | – | – | –
2 | Soluble recombinant human leptin receptor (from UniProt P48357 22-839) | – | no binding (condition: heat-treated mCRP) | no binding (tested: 100 µg/ml coated) | binds | no binding (tested: 100 µg/ml coated)

From PMC5992430
